Measurements published in PMC6348423, “Rapid Mapping of Protein Interactions Using Tag‐Transfer Photocrosslinkers” (Angewandte Chemie (International Ed. in English), 2018).
Substitutions are numbered along the chain they refer to. Numbers in names are those of the source. These are yes or no findings as the source states them, for the method shown. Some entries that bind do so weakly or less than the wild type. Values belong to the binder of their own block, whether it stands above or below them.

Target: T1, Skp (E. coli) (UniProt P0AEU7)
T1 sequence: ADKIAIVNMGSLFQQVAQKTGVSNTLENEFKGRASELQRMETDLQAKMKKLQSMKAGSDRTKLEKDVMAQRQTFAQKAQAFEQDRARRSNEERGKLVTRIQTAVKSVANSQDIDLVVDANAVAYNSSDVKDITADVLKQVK
Assay: cross-linking; Skp/OmpA complex assembled by dilution of urea-denatured OmpA into a Skp-containing solution; photoinduced crosslinking at 365 nm (UV LED or Hg-Xe lamp); non-reducing SDS-PAGE; tag transfer, enrichment on thiopropyl Sepharose 6B, LC-MS/MS; both purified

B3: OmpA(T144C)[MTS-TFMD] (protein, UniProt P0A910 22-346)
chain: APKDNTWYTGAKLGWSQYHDTGFINNNGPTHENQLGAGAFGGYQVNPYVGFEMGYDWLGRMPYKGSVENGAYKAQGVQLTAKLGYPITDDLDIYTRLGGMVWRADTKSNVYGKNHDTGVSPVFAGGVEYAITPEIATRLEYQWCNNIGDAHTIGTRPDNGMLSLGVSYRFGQGEAAPVVAPAPAPAPEVQTKHFTLKSDVLFNFNKATLKPEGQAALDQLYSQLSNLDPKDGSVVVLGYTDRIGSDAYNQGLSERRAQSVVDYLISKGIPADKISARGMGESNPVTGNTCDNVKQRAALIDCLAPDRRVEIEVKGIKDVVTQPQA
modifications: Cys at 144 conjugated with MTS-TFMD
binding: binds

B4: OmpA(W7C)[MTS-TFMD] (protein, UniProt P0A910 22-346)
chain: B3 chain with W7C, C144T
modifications: Cys at 7 conjugated with MTS-TFMD
binding: binds

Next, values leading:

binding: binds
B1: OmpA(W7C)[MTS-diazirine] (protein, UniProt P0A910 22-346)
chain: B3 chain with W7C, C144T
modifications: Cys at 7 conjugated with MTS-diazirine

binding: binds
B2: OmpA(T144C)[MTS-diazirine] (protein, UniProt P0A910 22-346)
chain: B3 chain
modifications: Cys at 144 conjugated with MTS-diazirine
